The other results are listed elsewhere or left out. These are further read-outs of the screen, such as a control signal, another cell line or another target. No call is given for them. The list favours compounds with an active or inconclusive main result. The note in brackets gives the kind of curve behind each potency; many fits are weak.
Test: qHTS Assay to Find Inhibitors of Chronic Active B-Cell Receptor Signaling
Details: ABC-DLBCL IkBa-CBG/CBR reporter, luminescence ratio (green luciferase fused to IkBa over red control in TMD8 lymphoma cells), 4 h
Outline: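 TMD8 human ABC-DLBCL cells with doxycycline-inducible IκBα–green luciferase fusion and unfused red luciferase, in 0.5% FBS medium; compounds up to 46 uM, 4 h at 37C. Green/red luminescence ratio, filter-overlap corrected, fitted to concentration-response curves.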

[1] = measured here: CBR red luminescence, cell number
[2] = measured here: IkBa-CBG green luminescence

Compound	AC50 [1]	AC50 [2]
CC(C)c1nc2sc3c(=O)[nH]c(=S)[nH]c3c2c2c1CCC2	29.1 µM [rising, single point]	
O=C(/C=C/Nc1ccc(S(=O)(=O)Nc2cnc3ccccc3n2)cc1)c1cccnc1	35.5 µM [rising, single point]	
CCCN(CC(=O)Nc1ccccc1C)C(=O)CCCNC(=O)c1ccc(Cl)cc1	1.46 µM [rising, full curve, poor fit]	
COc1cc(/C=N/Nc2nc(C)cc(=O)[nH]2)cc(OC)c1O	35.5 µM [falling, single point]	3.98 µM [rising, partial curve, poor fit]
CCS(=O)(=O)c1ncc(Cl)c(C(=O)Nc2ccc(S(=O)(=O)N3CCC(C)CC3)cc2)n1	11.2 µM [falling, partial curve, poor fit]	
Cc1ccc(-n2c(C)cc(/C=c3/sc4nc5ccccc5n4c3=O)c2C)cc1	16.4 µM [rising, partial curve]	
CC(C)(C)NS(=O)(=O)c1ccc(NC(=O)C2CCCCC2)cc1	35.5 µM [rising, partial curve, poor fit]	
Cc1[nH]c2ccccc2c1C(=O)COC(=O)CCS(=O)(=O)c1ccccc1Cl	20.6 µM [falling, single point]	
Cc1ccc(-c2onc3ccc(C(=O)/C=C/N(C)C)cc23)cc1	14.1 µM [rising, single point]	
Cc1ccc(-c2nc3ncccn3c2Nc2ccc3c(c2)OCCO3)o1	0.206 µM [rising, full curve, poor fit]	
COc1ccc(C(=O)COC(=O)CCNS(=O)(=O)c2ccccc2)c(OC)c1	25.9 µM [rising, partial curve]	
C=CCSc1nc(=O)n2ccc(C)cc2n1	11.2 µM [rising, partial curve]	
O=C(CSC1=NC(=O)C(c2ccccc2)C(=O)N1)Nc1ccccc1[N+](=O)[O-] (stereo unspecified)	6.31 µM [rising, single point]	
COC(=O)c1ccc(/C=N\n2c(C)nnc2C)cc1		32.6 µM [falling, partial curve, poor fit]
CCOC(=O)Cc1cnc(NC(=O)c2ccccc2)s1	7.94 µM [falling, partial curve]	
O=C(c1cc(-c2ccc(F)cc2)on1)N1CCOCC1	11.2 µM [falling, single point]	
O=C(CN1C(=O)c2ccccc2C1=O)Nc1ccc(S(=O)(=O)N2CCOCC2)cc1	22.4 µM [rising, single point]	
CCc1ccc(C(=O)Nc2nc(C)cs2)s1	35.5 µM [falling, single point]	
COc1ccccc1/C=N/NC(=O)CN(C1=NS(=O)(=O)c2ccccc21)c1ccccc1	25.9 µM [falling, single point]	
N/C(=N\OC(=O)CCC1CCCCC1)c1cccc([N+](=O)[O-])c1	11.2 µM [rising, single point]	
CCCCSC1=C(C#N)C(c2ccccc2C)C(C(=O)OCC)C(=O)N1 (stereo unspecified)	35.5 µM [falling, single point]	

6 successive records from above, quoted:
Compound	AC50 [1]	AC50 [2]
Cc1ccc(-n2c(C)cc(/C=c3/sc4nc5ccccc5n4c3=O)c2C)cc1	16.4 µM [rising, partial curve]	
CC(C)(C)NS(=O)(=O)c1ccc(NC(=O)C2CCCCC2)cc1	35.5 µM [rising, partial curve, poor fit]	
Cc1[nH]c2ccccc2c1C(=O)COC(=O)CCS(=O)(=O)c1ccccc1Cl	20.6 µM [falling, single point]	
Cc1ccc(-c2onc3ccc(C(=O)/C=C/N(C)C)cc23)cc1	14.1 µM [rising, single point]	
Cc1ccc(-c2nc3ncccn3c2Nc2ccc3c(c2)OCCO3)o1	0.206 µM [rising, full curve, poor fit]	
COc1ccc(C(=O)COC(=O)CCNS(=O)(=O)c2ccccc2)c(OC)c1	25.9 µM [rising, partial curve]	

(next part)

Compound	AC50 [1]	AC50 [2]
Nc1ncnc(Sc2ncccn2)c1[N+](=O)[O-]	5.01 µM [falling, partial curve]	
Cc1cc(C(=O)OCC(=O)NCc2ccco2)c(C)n1-c1ccccc1	6.31 µM [rising, full curve]	
CC1(c2ccc3c(c2)OCCO3)NC(=O)N(CC(=O)Nc2ccccc2SCC#N)C1=O (stereo unspecified)	29.1 µM [rising, single point]	
O=C(Cc1ccc(S(=O)(=O)N2CCCCC2)cc1)NCc1ccc(Cl)cc1	29.1 µM [rising, single point]	
CSC1=NSC2=NC(=O)/C(=C\c3cccs3)C(=N)N12	16.4 µM [falling, single point]	29.1 µM [rising, partial curve, poor fit]
COc1ccc(S(=O)(=O)N(C)c2ccc(C(=O)NCCC(C)C)cc2)cc1	29.1 µM [rising, single point]	
CCCCc1nnc(NC(=O)CCS(=O)(=O)c2ccc(Cl)cc2)s1	14.6 µM [falling, partial curve, poor fit]	
O=[N+]([O-])c1ccc(N/N=C/c2ccc[nH]2)cc1	0.103 µM [rising, full curve, poor fit]	
CSc1ccc(/C=C(\C#N)C(=O)NC2CCCCC2C)cc1 (stereo unspecified)	23.1 µM [falling, single point]	
CCc1nccn1C(=O)c1cnn2c(C(F)F)cc(-c3ccccc3)nc12	20 µM [falling, partial curve, poor fit]	
O=C(/C=C/c1cccc(Cl)c1)Nc1ccncc1	0.316 µM [rising, partial curve, poor fit]	
O=C(Nc1ccc2c(c1)OCCO2)C(=O)NC1CC1	35.5 µM [falling, single point]	
CCC(C)c1ccccc1OCCCNC1CCCC1 (stereo unspecified)	35.5 µM [falling, single point]	
CCn1c(C)cc(/C=C2/SC(=O)N(C(C)C(=O)OC)C2=O)c1C (stereo unspecified)	8.91 µM [rising, partial curve, poor fit]	
COC(=O)Cc1cc(=O)n2[nH]c(SC)nc2n1	7.31 µM [falling, single point]	
CCCOc1ccc(-c2nnc(-c3cccs3)o2)cc1	0.164 µM [rising, full curve, poor fit]	
Cc1cc(C)c(NC(=O)CSc2nccn2C)c(C)c1	6.51 µM [rising, partial curve, poor fit]	
CCOc1ccccc1CN(CCc1ccc2c(c1)OCO2)Cc1ccccn1	3.16 µM [falling, single point]	
O=C(O)c1ccc(N=Nc2c(-c3ccccc3)[nH]oc2=O)cc1	0.0355 µM [falling, full curve, poor fit]	
Cc1ccc(C(=O)NC2(C(Cl)Cl)N=C(c3ccccc3)N=C2N)cc1 (stereo unspecified)	0.794 µM [rising, partial curve]	
O=C(CS(=O)(=O)Nc1ccc(F)cc1Cl)Nc1ccc(F)cc1Cl	22.4 µM [rising, single point]	

Compound	AC50 [1]	AC50 [2]
CC(C)CN1CCNC(=O)C1CC(=O)NCc1cnn(-c2cccc(F)c2)c1 (stereo unspecified)	5.01 µM [rising, full curve, poor fit]	
CC1(c2ccc(OC(F)F)cc2)NC(=O)N(CC(=O)Nc2ccccc2)C1=O (stereo unspecified)	35.5 µM [falling, single point]	
O=C1Nc2ccccc2/C1=C/c1ccc([N+](=O)[O-])cc1	3.16 µM [rising, single point]	11.2 µM [falling, partial curve, poor fit]
CCOC(=O)C1=c2s/c(=C\c3ccncc3)c(=O)n2C(N)=C(C(=O)OC)C1c1ccncc1 (stereo unspecified)	2.51 µM [rising, partial curve]	
CCN(CC)S(=O)(=O)c1cccc(-c2nnc(SCc3nnc(-c4ccccc4)o3)n2C)c1	1.03 µM [rising, full curve, poor fit]	
CC(C)N(C(=O)[C@H]1C[C@H](CC(=O)NCc2ccco2)C(=O)N2CCc3c([nH]c4cc(-c5ccco5)ccc34)[C@]12C)C(C)C	23.1 µM [falling, single point]	
O=S(=O)(Nc1ncccn1)c1ccc(NC(=S)Nc2cccc(Cl)c2)cc1	15.8 µM [rising, single point]	
O=C(CCl)NCCCN(C(=O)C(Cl)Cl)c1ccc([N+](=O)[O-])cc1	7.08 µM [falling, partial curve, poor fit]	
CCCn1c(=O)c2[nH]cnc2n(-c2ccc(Cl)cc2)c1=O	20 µM [falling, partial curve, poor fit]	
Cc1c(O)ccc(C(=O)CN2C(=O)c3ccccc3C2=O)c1O	5.17 µM [falling, full curve, poor fit]	
Cc1sc2nc(CSCC(=O)N3CC(C)OC(C)C3)[nH]c(=O)c2c1C (stereo unspecified)	25.9 µM [rising, single point]	
COc1ccc(CNCC(O)(c2ccc(F)cc2)c2ccc(F)cc2)cc1	11.2 µM [falling, single point]	
CCCCn1c(O)c(C=NCCCN(C)C)c(=O)[nH]c1=O	11.2 µM [rising, partial curve, poor fit]	
CCOC(=O)c1[nH]c2ccc(Br)cc2c1NC(=O)CNC	29.1 µM [falling, single point]	
CC(c1ccccc1)N1CCN(C(=O)CCl)CC1 (stereo unspecified)	7.94 µM [falling, partial curve, poor fit]	
CCOC(=O)N1CCN(C(=O)CSCC(=O)Nc2nc(-c3ccc4c(c3)OCO4)cs2)CC1	0.562 µM [falling, full curve]	
CCOc1ccccc1NC(=O)CN(c1ccc(C)cc1)S(=O)(=O)c1c(C)noc1C	5.8 µM [falling, single point]	
Cc1c(CCO)c(=O)[nH]n1C(=O)c1ccc(F)cc1	3.98 µM [falling, full curve]	
Cc1nc2cc(C(=O)OCC(=O)Nc3ccc(C#N)cc3)ccc2n1-c1ccccc1	18.4 µM [rising, partial curve, poor fit]	
CCCCc1ccc(-n2nnnc2SCC(=O)Nc2cc(OC)c([N+](=O)[O-])cc2C)cc1	6.51 µM [rising, single point]	
CCOc1ccc(CCNS(=O)(=O)c2c(C)nc3scc(C)n3c2=O)cc1OCC	2.51 µM [rising, full curve, poor fit]	
